Test results taken from patent US20160030443A1, “METHODS AND COMPOSITIONS FOR MODULATING REGULATORY T CELL FUNCTION” (priority 2013, published 2016).
Some entries share one result that the patent states for a list of compounds.

System: Treg cells
Assay: Durability of drug-induced reversal of Treg cell suppressive function
Format: cell-based, human
Conditions: then drug-free medium

CCn1cc(C(=O)O)c(=O)c2cc(F)c(N3CCNCC3)nc21 [#7, 1-Ethyl-6-fluoro-4-oxo-7-(1-piperazinyI)-1,4-dihydro-1,8-naphthyridine-3-carboxylic acid]
Time Treg cells remained unsuppressive after 1 day treatment (1 day drug treatment): 5 to 6 days
Time Treg cells remained unsuppressive after 3 day treatment (3 day drug treatment): 3-4 weeks
